According to paper PMC12040169 (PLOS Biology, 2025):
The other results are listed elsewhere or left out.

These molecules were tested on T1, CTL2-GFP (C. trachomatis L2/434/Bu, GFP-expressing). Settings: bulk GFP, single well; 28.5 h, 10 µM; inhibitor.
T1 construct: L2/434/Bu, GFP-expressing
Design: species or system HeLa; Intracellular C. trachomatis growth in HeLa cells, bulk GFP fluorescence relative to DMSO

SMILES	% of control remaining
CCCCCC(=O)Nc1ccc(C(=O)CSc2nnc(-c3ccco3)o2)cc1 [CBK295134]	160.298%
CCCC(=O)Nc1c(F)cc(F)cc1OC1CCNCC1 [CBK045892T]	175.941%
Cc1cc(C)c2c(N)c(C(=O)O)sc2n1 [CBK131868]	118.974%
CCN1CCN(c2ccc([N+](=O)[O-])cc2S(=O)(=O)N2CCOCC2)CC1 [CBK264410]	135.021%
Cc1nc(-c2cccc(OC(F)F)c2)n(C2CCN(C)CC2)n1 [CBK307382]	142.715%
O=C(O)c1cc(-c2ccc(F)cc2)n[nH]1 [CBK267848]	137.938%
COCC(C)NC(=O)Cn1c(C(F)F)cc2cccnc21 (stereo not drawn) [CBK285010]	98.4084%
O=C(c1cnc2ccccc2c1)N1CCC(F)CC1 [CBK200273]	157.534%
Cc1cccc(CSc2nnc(C(C)NC(=O)c3ccccc3F)n2C)c1 (stereo not drawn) [CBK269732]	114.726%
O=C(c1cscn1)N1CCCC(n2cnc3cc(F)ccc32)C1 (stereo not drawn) [CBK284477]	150.969%
COc1ccc(NS(=O)(=O)c2cccs2)c(OC)c1 [CBK043915]	85.8075%
COc1cc(Nc2cncc(-c3cccc(F)c3)n2)cc(OC)c1OC [CBK065272]	182.928%
Cc1cc(-c2cn3cc(C(=O)N4CCCC4C)nc3c(=O)n2C)c(C)o1 (stereo not drawn) [CBK307038]	130.195%
O=S1(=O)c2cc(/N=C/c3c(O)ccc4ccccc34)ccc2-c2ccc(/N=C/c3c(O)ccc4ccccc34)cc21 [CBK261240]	100%
CC[C@H]1CN(C(=O)Nc2ccccc2)CC[C@H]1CC(=O)N(C)CC#N [CBK288777]	130.919%
COCCN(Cc1cnn(C)c1)Cc1cc(O)c2cc(C)ccc2n1 [CBK306723]	116.415%
Cc1ccc(C)c(S(=O)(=O)NCCCn2ccnc2)c1 [CBK262205]	96.3549%
COc1ccc(C)cc1CC(=O)N(C)CCN1CCCCC1 [CBK282750]	129.018%
CC(C)(C)c1ccc(C(=O)Nc2ccccc2C(=O)Nc2ccc(C(=O)O)cc2)cc1 [CBK268626]	142.335%
CC(C)c1ccnc(C(C)Sc2nc(N)c(Br)c(Cl)n2)c1 (stereo not drawn) [CBK016828]	106.796%
COC(=O)c1c(NC(=O)c2cc(C)on2)sc(C(=O)Nc2ccc(Cl)cc2)c1C [CBK268116]	129.766%

Reformatted as comma-separated lines: entries from further up
SMILES,% of control remaining
Cc1cc(C)c2c(N)c(C(=O)O)sc2n1 [CBK131868],118.974%
COCC(C)NC(=O)Cn1c(C(F)F)cc2cccnc21 (stereo not drawn) [CBK285010],98.4084%
Cc1cccc(CSc2nnc(C(C)NC(=O)c3ccccc3F)n2C)c1 (stereo not drawn) [CBK269732],114.726%
O=S1(=O)c2cc(/N=C/c3c(O)ccc4ccccc34)ccc2-c2ccc(/N=C/c3c(O)ccc4ccccc34)cc21 [CBK261240],100%
COC(=O)c1c(NC(=O)c2cc(C)on2)sc(C(=O)Nc2ccc(Cl)cc2)c1C [CBK268116],129.766%

Further entries

SMILES	% of control remaining
CC(C)N1CCC(C(=O)NC(=O)NCCOc2cccc3ccccc23)CC1 [CBK034807]	100%
Cn1ncc(Cl)c1C1CCCCCN1S(=O)(=O)c1ccc2[nH]c(=O)[nH]c(=O)c2c1 (stereo not drawn) [CBK286303]	105.392%
Cc1cccc(N(CC(=O)NCc2ccco2)S(=O)(=O)c2ccccc2)c1 [CBK263571]	86.706%
COCCc1ccccc1NC1CCN(c2nccs2)CC1 [CBK305476]	129.794%
NCC(NC(=O)c1cnc(-c2ccncc2)s1)C1CCCCC1 (stereo not drawn) [CBK306502C]	71.935%
Cc1ccsc1-c1nc2cnccn2c1NC1CCCC1 [CBK283524]	118.442%
Cc1cnc2[nH]c(C3CCCN(C(=O)c4cccnc4C)C3)cc2c1 (stereo not drawn) [CBK285169]	131.737%
O=C(O)Cn1nnnc1CN1CCc2ccccc2C1 [CBK287097]	108.932%
CCc1cc(C(=O)NC(c2ccncc2)c2cccs2)n(C)n1 (stereo not drawn) [CBK281482]	105.88%
COc1nccnc1-c1cnn(Cc2ccccc2)c1 [CBK107090]	106.514%
COc1nccc(N2CCC3(CC(=O)NC3=O)C2)c1C#N (stereo not drawn) [CBK307246]	107.923%
CCN(CC)CCC(C(=O)c1ccccc1)S(C)(=O)=O (stereo not drawn) [CBK022802]	153.96%
O/N=C(\Cn1cncn1)c1ccc(Cl)cc1Cl [CBK261085]	108.267%
O=C(COc1ccc(NS(=O)(=O)c2ccc3oc4cc([N+](=O)[O-])ccc4c3c2)cc1)N1CCOCC1 [CBK268252]	98.025%
Cc1ccsc1C(=O)N1CCN(Cc2cc(=O)n3ccccc3n2)CC1 [CBK305044]	104.66%
CC1(C)CC(NC(=O)C(=O)NC2CC(C)(C)NC(C)(C)C2)CC(C)(C)N1 [CBK261951]	100%
CC(=O)Nc1ccc(/C=N/c2ccccc2)cc1 [CBK012258]	101.725%
Cc1ccc([N+](=O)[O-])c(OCCNCCN(C)C)c1 [CBK267822C]	96.4328%
CC1(C)NC(=O)N(CC(O)CN(C2CCCCC2)C2CCCCC2)C1=O (stereo not drawn) [CBK264578]	115.001%
O=C(c1ccc(S(=O)(=O)N2CCCC2)cc1)N1CCN(C/C=C/c2ccccc2)CC1 [CBK263587]	87.1663%
CCOC(=O)CSc1nnc(-c2ccncc2)n1-c1ccccc1 [CBK263350]	100%

SMILES	% of control remaining
CN(C)CCN1CCN(c2nc(-c3cccc4cccnc34)cnc2N)CC1 [CBK063464]	130.646%
Cc1ccc(S(=O)(=O)NCCCN2CCOCC2)cc1C [CBK262934]	147.139%
Cc1cccn2c(=O)cc(CN3CCC(n4ccnc4)CC3)nc12 [CBK305519]	111.934%
O=C(COc1nc2ccccc2s1)N1N=CCC1c1ccccc1 (stereo not drawn) [CBK270188]	134.947%
CC(C)Nc1nc2cc(Cl)c(Cl)cc2nc1OCCN(C)C [CBK113419]	100.134%
CC1CN(c2cc(CO)c(F)cn2)CC2(CCOC2C)O1 (stereo not drawn) [CBK304754]	110.607%
COc1ccccc1-c1cnc2[nH]c(=O)n([C@@H](C)c3ccccc3)c2n1 [CBK064717]	131.765%
Nc1ccccc1Sc1nccc(C(F)(F)F)n1 [CBK006263]	99.0312%
O=C(CN1CCOCC1)c1ccc(O)o1 [CBK019286]	123.187%
O=c1[nH]c(CSc2nnc(CCCOc3ccc(Cl)cc3Cl)o2)nc2ccccc12 [CBK268861]	120.543%
O=C(c1ccsc1NS(=O)(=O)Cc1ccccc1[N+](=O)[O-])N1CCOCC1 [CBK042294]	126.209%
CC(C)(C)OC(=O)N1CCc2[nH]nc(Nc3ccccc3)c2C1 [CBK281541]	124.505%
CC1CCN(C(C)Cn2cncc2-c2cnn(C)c2)CC1 (stereo not drawn) [CBK281703]	132.618%
CC(C)(C)c1cc(C(=O)Cn2c(=N)n(Cc3ccccc3)c3ccccc32)cc(C(C)(C)C)c1O [CBK262480B]	7.944%
Cc1ccc(NC(=O)CC2SC(NC3CCCCC3)=NC2=O)c(C)c1 (stereo not drawn) [CBK059500]	122.55%
CC(C)Cc1nc(Cn2cnc3c(cnn3C)c2=O)no1 [CBK306256]	143.78%
O=C(O)Cn1nnc(-c2ccc(OCc3cccc(C(F)(F)F)c3)cc2)n1 [CBK267034]	158.649%
COc1cc(C(=O)NC/C=N/O)cc(OC)c1OC [CBK015662]	98.2866%
COc1ccc2cc(C#N)c(SCC(=O)Nc3ccc(F)cc3)nc2c1 [CBK068765]	100%
COCCCN1C(=O)C(O)=C(C(=O)c2ccc(C)o2)C1c1ccc(Br)cc1 (stereo not drawn) [CBK264876]	129.046%
Cc1cc2[nH]cc(C(=O)N3CCCC3c3ccco3)c(=O)n2n1 (stereo not drawn) [CBK307390]	109.092%

SMILES	% of control remaining
CCCS(=O)(=O)Nc1cccc(-c2nnn[nH]2)c1 [CBK155417]	84.0423%
CC(=O)N1CCC(c2nc(C3CCCC3)no2)C1 (stereo not drawn) [CBK285452]	145.926%
Cc1ccc(S(=O)(=O)N(C)C)cc1NC(=O)C12CCC(C)(C(=O)C1)C2(C)C (stereo not drawn) [CBK266551]	129.554%
COc1cc(C=O)ccc1OCC(=O)Nc1ccc(C)c(Cl)c1 [CBK266190]	130.502%
Cc1cccc(C(=O)N2CCN(S(=O)(=O)c3sc(C(=O)O)c(C)c3C(=O)O)CC2)c1 [CBK297124]	123.648%
COc1cccc(C(=O)N2CCC(NC(=O)c3csc(-c4ccccc4)n3)CC2)c1 [CBK155030]	138.052%
Cc1nc(-c2ccccc2)sc1CNC(=O)C1CC1C (stereo not drawn) [CBK092369]	125.673%
Cc1cc(C)n(C(CC(=O)c2ccccc2)C(=O)O)n1 (stereo not drawn) [CBK287209]	129.83%
COc1ccc(-c2nc3ccc(C)cc3c(C(=O)NCCc3ccc(S(N)(=O)=O)cc3)c2C)cc1 [CBK267753]	84.7352%
Cc1nc2c(OCc3ccc(F)c(F)c3)cccn2c1N(C)CC1CC1 [CBK147276]	107.21%
O=C(c1sccc1NS(=O)(=O)c1ccc(Oc2ccccc2)cc1)N1CCOCC1 [CBK050423]	110.086%
CC(C)NC(=O)[C@@H]1CN(C)C[C@]12CCc1ccccc1C2=O [CBK284764]	132.847%
c1ccc(-c2nn3c(CN4CCOCC4)nnc3c3ccccc23)cc1 [CBK269779]	155.398%
CN1CC=C(/C=C/c2ccc(Sc3ncccn3)o2)CC1 [CBK283797]	116.704%
CCN(Cc1ccncc1)C(=O)NCCCSC [CBK155125]	118.541%
O=C(NCCCc1ccccn1)c1cnn(-c2ccc(F)cc2)c1 [CBK283287]	109.876%
Cc1nc(C2(O)CCCN(Cc3cccc(F)c3)CC2)sc1CCOc1ccccc1 (stereo not drawn) [CBK286024]	86.1398%
CCN(CC)c1c(C)nc2ccc(C(=O)NCCc3ccccn3)cn12 [CBK145951]	90.2637%
